# According to patent publication US20090054414A1, “Rufinamide for the Treatment of Post-Traumatic Stress Disorder” (SYNOSIA THERAPEUTICS, priority 2007, published 2009):
# Legend:
# [1] = system: male OF-1 “intruder” mice; experiment: Intruder test (social withdrawal of intruder mice); type: in vivo, mouse; conditions: 1/3/10 mg/kg oral; rectal temperature
# Procedure: Rufinamide, a Na-channel blocker and anti-epileptic agent, and carbamazepine, an anticonvulsant employed to treat bipolar disorder, were given to male OF-1 “intruder” in oral-doses of 1/3/10 mg/kg, 1 hr before the animals were confronted with an individually-housed, aggressive, male OF-1 resident mouse. […] This increase in social investigation (sociotropic effect) was accompanied by a decrease in the frequency and duration of defensive ambivalence probably through competitive inhibition. No signs of motor stimulation were detected.
# The Intruder test duplicates a territorial encounter between a territory holder (aggressive male) and a subordinate “intruder” mouse. […] In this test the intruders receive the treatment whereas the residents remain untreated. (Dixon, A. K., Huber, C., Lowe, D. J. Clin. Psychiatry. 55 (9) Suppl B, 4-7 (1994)). For purposes of this study, rufinamide and carbamazepine were given orally to intruder mice 1 hr before being introduced singly to aggressive residents using doses of ⅓ and 10 mg/kg.
# Over 60 ethological elements describing the social and non-social behaviour of mice based on the ethogram originally proposed by Grant and Mackintosh (Grant, E. C. Mackintosh, J. H. Behaviour 21: 246-259 (1963) ) and classified according to 9 behavioural categories (Dixon, A. K., Huber, C., Fisch, H. U. Adv. Study. Behaviour. 19: 171-204 (1990)) form the rodent ethogram as used in this test (FIG. 3).
# [2] = system: Male OF1/IC mice; experiment: modified stress-induced hyperthermia (SIH) test; type: in vivo, mouse
# Procedure: Rufinamide was tested in the modified stress-induced model of anxiety. The stress-induced hyperthermia test in mice is a paradigm developed several years ago to model the expression of autonomic hyperactivity in anxiety (Lecci A, Borsini F, Volterra G, Meli A. (1990) Pharmacological validation of a novel model of anticipatory anxiety in mice. Psychopharmacology; 101:255-61.; Spooren W P, Schoeffter P, Gasparini F, Kuhn R, Gentsch C. (2002) Pharmacological and endocrinological characterisation of stress-induced hyperthermia in singly housed mice using classical and candidate anxiolytics (LY314582, MPEP and NKP608). Eur J Pharmacol; 435:161-70.;Zethof T J J, van der Heyden J A M, Tolboom J B M, Olivier B (1994) Stress-induced hyperthermia in mice: a methodological study. Phys. Behav. 55:109-115.). […] Pharmacol Biochem Behav 72:179-188.
# Male OF1/IC mice (MA205 Tiger code) were obtained several days prior to behavioural testing from Iffa Credo (L'Arbresle, France; 18-20 g) and housed in groups of 15 animals per cage (macrolon cages 42H26H15 cm, Type 4). The animals were individually housed (macrolon cage: 26H21H14 cm, Type 2) 24 h before testing. The day preceding the experiment, all cages were transferred to the testing room—and background noise (radio) was used during the light cycle. Both the animal room and the laboratory were temperature controlled and equipped with artificial illumination (L12:D12; lights on 06:00). Mice always had ad libitum access to water and food (Ecosan, Eberle Nafag A G, Gossau, Schweiz).
# The test procedure for the modified stress-induced hyperthermia was adapted from van der Heyden et al. (1997). Rectal temperature was measured in each mouse twice, i.e. at t=0 min (T1) and t=+15 min (T2). The difference in temperature (T2-T1) was considered to reflect the stress-induced hyperthermia (SIH). […] In addition, a comparison between T1 in vehicle-treated mice and in animals treated with a given dose of a test-compound was used, to measure whether a test-compound affected body temperature alone.
# Rectal temperature was measured to the nearest 0.1° C. by an ELLAB instruments (Copenhagen, Denmark) thermometer Model DM 852 by inserting a lubricated thermistor probe model PRA-22002-A (ELLAB, Copenhagen, Denmark) (2.2 mm diameter) 20 mm into the rectum; the mouse was hand held at the base of the tail during this determination and the thermistor probe was left in place for 15 s.
# All drugs were made up fresh and dissolved in vehicle (0.5% methylcellulose) and administered per os (p.o.) in a volume of 10 ml/kg.
# All data was analysed using a one-way analysis of variance (ANOVA) followed where appropriate by Dunnett test of multiple comparisons. The level of significance was set at p<0.05.
SMILES,basal body temperature of intruder mice [1],post-encounter hyperthermia of intruder mice [1],"baseline body temperature T1 ([2]; first experiment, rufinamide 3-100 mg/kg p.o., CDZ 10 mg/kg p.o., pair-wise comparisons)","basal temperature T1 ([2]; pooled data of all 3 experiments, all treatment groups vs control)","basal body temperature T1 ([2]; second experiment, rufinamide 0.3-300 mg/kg p.o., CDZ 10 mg/kg p.o.)","basal body temperature T1 ([2]; third experiment, rufinamide 25-50-100-200 mg/kg p.o.)"
NC(=O)N1c2ccccc2C=Cc2ccccc21 [carbamazepine],did not alter,nor alter,–,–,–,–
"NC(=O)c1cn(Cc2c(F)cccc2F)nn1 [rufinamide, 1-(2,6-difluorobenzyl)-1H-1,2,3-triazole-4-carboxamide]",did not alter,nor alter,neither rufinamide nor the positive control CDZ significantly altered,no treatment group was significantly different from control animals,Neither rufinamide nor CDZ significantly modified,did not modify
